Some of the results follow. The calls rarely recur for the same compound in another form.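 In K562 cells expressing nanoluciferase-fused kinases, luminescence was recorded at 4 h intervals between 2 and 18 h, normalized as percent of control with DMSO at 100% and a positive control at 0%. A significant (2 sigma) signal drop marks a time point as decreased. The authors' rule for a hit is not shown and takes in more than the number of time points.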
What was measured:
Test in all cases: number of time points (of 5) at which kinase-Nluc abundance scored as decreased, DMSO-normalised (count); higher = more persistent destabilization
Conditions in all cases: 10 µM; K562; 2-18 h
[1] = compound: CNC(=O)c1ccccc1Nc1cc(Nc2ccc(N3CCOCC3)cc2OC)ncc1C(F)(F)F
G-5555 (hydrochloride) = compound: CNc1ncc2cc(-c3ccc(-c4cccc(C)n4)cc3Cl)c(=O)n(C[C@H]3OC[C@H](N)CO3)c2n1 [G-5555 (hydrochloride)]
[2] = compound: CNc1ncc2cc(-c3ccc(-c4cccc(C)n4)cc3Cl)c(=O)n(C[C@H]3OC[C@H](N)CO3)c2n1
[3] = compound: COC(=O)[C@H](CC(C)C)NC(=O)c1ccc(NC[C@@H](N)CS)cc1-c1cccc2ccccc12 [GGTI298 (Trifluoroacetate)]
[4] = compound: COC(=O)[C@H](CC(C)C)NC(=O)c1ccc(NC[C@@H](N)CS)cc1-c1cccc2ccccc12
AZD3229 Tosylate = compound: COCCOc1cc(F)c2c(Nc3ccc(NC(=O)Cn4cc(C(C)C)nn4)cc3)ncnc2c1 [AZD3229 Tosylate]
[5] = compound: COCCOc1cc(F)c2c(Nc3ccc(NC(=O)Cn4cc(C(C)C)nn4)cc3)ncnc2c1
Ferulic acid (sodium) = compound: COc1cc(/C=C/C(=O)O)ccc1O [Ferulic acid (sodium)]
Ferulic acid = compound: COc1cc(/C=C/C(=O)O)ccc1O [Ferulic acid]
ALK2-IN-4 (succinate) = compound: COc1cc2c(-c3cnn4cc(N5CCC(N6CCN(C)CC6)CC5)cnc34)ccnc2cc1F [ALK2-IN-4 (succinate)]

Amino acid sequences for entries named in this document (tags omitted). A change or cut given only in a name is not applied to a line headed by its entry.
UniProt O14965: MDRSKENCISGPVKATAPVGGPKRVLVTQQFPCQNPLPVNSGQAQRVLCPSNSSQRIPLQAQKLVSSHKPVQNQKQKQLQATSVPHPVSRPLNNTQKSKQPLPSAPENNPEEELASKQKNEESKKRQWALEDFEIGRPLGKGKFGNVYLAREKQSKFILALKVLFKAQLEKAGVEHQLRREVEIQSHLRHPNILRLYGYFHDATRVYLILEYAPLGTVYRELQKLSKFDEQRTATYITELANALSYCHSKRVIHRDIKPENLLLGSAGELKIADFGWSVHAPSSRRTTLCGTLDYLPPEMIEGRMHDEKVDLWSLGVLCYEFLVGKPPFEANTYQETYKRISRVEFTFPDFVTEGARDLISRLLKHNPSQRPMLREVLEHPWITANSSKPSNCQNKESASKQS
UniProt Q9UQB9: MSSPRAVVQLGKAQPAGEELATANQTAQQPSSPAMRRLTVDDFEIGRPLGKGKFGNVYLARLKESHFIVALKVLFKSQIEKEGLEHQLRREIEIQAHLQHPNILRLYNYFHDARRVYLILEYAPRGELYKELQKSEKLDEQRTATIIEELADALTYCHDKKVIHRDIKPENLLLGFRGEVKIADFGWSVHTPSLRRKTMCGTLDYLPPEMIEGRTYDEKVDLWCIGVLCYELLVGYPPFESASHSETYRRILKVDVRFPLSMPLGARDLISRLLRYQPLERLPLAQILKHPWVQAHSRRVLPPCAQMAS
UniProt Q9BUB5: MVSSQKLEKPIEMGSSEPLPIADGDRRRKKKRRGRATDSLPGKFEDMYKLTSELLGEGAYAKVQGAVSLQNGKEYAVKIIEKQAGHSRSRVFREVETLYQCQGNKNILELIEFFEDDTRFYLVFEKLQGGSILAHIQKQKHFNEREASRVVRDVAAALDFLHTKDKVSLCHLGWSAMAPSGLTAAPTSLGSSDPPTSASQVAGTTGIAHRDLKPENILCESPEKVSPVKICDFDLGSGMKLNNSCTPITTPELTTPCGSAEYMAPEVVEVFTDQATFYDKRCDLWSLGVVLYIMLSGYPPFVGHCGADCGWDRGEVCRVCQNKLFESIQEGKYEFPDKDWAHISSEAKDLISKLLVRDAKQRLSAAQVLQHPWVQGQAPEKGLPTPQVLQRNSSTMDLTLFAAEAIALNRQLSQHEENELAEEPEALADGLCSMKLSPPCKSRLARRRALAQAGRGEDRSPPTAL
UniProt Q9Y463, whole entry, looked up: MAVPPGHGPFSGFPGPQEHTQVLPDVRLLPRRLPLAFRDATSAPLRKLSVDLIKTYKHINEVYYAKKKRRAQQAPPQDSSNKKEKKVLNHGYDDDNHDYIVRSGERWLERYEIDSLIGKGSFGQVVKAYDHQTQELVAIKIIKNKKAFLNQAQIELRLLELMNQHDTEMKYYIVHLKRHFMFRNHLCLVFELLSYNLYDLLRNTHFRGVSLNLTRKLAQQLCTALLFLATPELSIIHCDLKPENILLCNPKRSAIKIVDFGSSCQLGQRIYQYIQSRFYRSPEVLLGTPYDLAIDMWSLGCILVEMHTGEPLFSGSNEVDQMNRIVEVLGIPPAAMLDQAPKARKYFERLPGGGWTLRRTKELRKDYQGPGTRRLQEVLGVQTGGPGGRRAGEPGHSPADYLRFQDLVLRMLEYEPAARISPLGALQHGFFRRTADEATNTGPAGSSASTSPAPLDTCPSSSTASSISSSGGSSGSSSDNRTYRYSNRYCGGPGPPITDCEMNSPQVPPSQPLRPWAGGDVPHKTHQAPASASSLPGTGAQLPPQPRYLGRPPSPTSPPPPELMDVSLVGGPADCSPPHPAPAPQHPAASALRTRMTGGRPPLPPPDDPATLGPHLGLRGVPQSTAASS
UniProt P43403: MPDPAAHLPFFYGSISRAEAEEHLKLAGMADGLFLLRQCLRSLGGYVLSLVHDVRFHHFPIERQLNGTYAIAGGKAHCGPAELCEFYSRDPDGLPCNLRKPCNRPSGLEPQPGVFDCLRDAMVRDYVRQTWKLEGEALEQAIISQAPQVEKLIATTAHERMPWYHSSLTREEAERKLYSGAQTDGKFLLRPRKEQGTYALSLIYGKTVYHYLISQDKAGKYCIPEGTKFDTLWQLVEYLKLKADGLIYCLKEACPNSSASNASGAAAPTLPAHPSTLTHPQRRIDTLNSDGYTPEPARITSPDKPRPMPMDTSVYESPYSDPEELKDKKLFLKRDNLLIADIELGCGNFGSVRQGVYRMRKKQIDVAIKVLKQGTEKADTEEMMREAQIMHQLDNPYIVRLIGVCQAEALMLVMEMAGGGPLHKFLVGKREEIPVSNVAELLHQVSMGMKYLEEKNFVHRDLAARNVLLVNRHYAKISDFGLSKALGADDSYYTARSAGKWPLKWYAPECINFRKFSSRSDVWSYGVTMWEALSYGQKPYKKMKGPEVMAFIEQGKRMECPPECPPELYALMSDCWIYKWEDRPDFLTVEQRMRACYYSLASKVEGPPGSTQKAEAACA
UniProt P21802, whole entry, looked up: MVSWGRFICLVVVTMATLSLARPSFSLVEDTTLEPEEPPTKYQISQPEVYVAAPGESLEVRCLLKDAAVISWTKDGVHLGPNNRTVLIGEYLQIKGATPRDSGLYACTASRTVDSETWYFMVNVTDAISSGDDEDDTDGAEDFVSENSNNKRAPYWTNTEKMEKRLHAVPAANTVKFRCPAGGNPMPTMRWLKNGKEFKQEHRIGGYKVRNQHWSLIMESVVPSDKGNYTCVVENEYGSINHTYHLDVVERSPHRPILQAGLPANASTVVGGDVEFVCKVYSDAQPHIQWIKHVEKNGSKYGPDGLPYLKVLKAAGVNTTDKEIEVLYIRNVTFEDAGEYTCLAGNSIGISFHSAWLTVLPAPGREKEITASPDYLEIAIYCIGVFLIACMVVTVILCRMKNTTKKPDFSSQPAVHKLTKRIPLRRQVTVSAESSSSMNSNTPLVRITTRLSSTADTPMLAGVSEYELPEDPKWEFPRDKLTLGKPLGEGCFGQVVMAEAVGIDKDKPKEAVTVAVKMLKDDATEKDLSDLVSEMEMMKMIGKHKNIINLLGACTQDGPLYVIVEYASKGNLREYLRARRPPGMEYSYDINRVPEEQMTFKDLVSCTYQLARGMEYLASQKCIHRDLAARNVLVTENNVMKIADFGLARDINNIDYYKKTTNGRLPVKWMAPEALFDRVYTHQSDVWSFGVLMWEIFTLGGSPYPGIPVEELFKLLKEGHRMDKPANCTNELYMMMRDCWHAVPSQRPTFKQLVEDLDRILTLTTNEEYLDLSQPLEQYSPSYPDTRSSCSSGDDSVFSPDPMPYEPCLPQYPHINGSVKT
UniProt P48730: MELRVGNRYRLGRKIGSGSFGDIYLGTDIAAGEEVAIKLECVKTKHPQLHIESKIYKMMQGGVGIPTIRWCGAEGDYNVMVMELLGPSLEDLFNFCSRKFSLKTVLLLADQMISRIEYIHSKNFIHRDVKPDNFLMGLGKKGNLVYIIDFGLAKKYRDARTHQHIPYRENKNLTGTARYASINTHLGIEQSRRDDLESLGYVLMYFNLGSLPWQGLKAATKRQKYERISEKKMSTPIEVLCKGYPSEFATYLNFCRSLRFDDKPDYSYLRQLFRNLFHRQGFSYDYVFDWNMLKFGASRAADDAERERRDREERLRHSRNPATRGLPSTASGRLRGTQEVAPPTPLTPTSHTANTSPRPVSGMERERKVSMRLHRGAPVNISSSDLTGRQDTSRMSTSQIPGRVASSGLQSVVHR
UniProt P53350, whole entry: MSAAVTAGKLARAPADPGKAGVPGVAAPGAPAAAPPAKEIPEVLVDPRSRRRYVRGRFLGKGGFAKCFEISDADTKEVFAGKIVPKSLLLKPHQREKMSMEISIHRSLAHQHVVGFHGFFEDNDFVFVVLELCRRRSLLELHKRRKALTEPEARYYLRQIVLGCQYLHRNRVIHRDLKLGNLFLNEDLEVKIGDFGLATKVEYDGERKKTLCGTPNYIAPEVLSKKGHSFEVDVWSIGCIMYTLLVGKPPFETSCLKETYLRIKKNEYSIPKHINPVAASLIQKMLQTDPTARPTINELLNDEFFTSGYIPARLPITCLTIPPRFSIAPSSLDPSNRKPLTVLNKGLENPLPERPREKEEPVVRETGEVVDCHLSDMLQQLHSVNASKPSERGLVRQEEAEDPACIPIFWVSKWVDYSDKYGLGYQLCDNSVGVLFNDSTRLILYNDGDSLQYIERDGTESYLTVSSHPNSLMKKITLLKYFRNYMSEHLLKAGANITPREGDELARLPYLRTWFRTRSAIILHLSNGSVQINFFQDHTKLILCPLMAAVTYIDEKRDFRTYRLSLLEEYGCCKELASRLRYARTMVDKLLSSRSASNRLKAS
UniProt Q00534, whole entry: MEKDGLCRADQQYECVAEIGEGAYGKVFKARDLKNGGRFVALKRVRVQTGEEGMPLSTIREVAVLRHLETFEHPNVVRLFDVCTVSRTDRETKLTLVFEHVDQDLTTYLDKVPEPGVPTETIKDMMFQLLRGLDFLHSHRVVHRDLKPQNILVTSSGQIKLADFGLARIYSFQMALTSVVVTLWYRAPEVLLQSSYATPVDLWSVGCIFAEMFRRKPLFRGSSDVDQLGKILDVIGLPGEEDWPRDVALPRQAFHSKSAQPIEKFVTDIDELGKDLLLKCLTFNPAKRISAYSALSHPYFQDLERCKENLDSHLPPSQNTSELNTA
UniProt P29317, whole entry: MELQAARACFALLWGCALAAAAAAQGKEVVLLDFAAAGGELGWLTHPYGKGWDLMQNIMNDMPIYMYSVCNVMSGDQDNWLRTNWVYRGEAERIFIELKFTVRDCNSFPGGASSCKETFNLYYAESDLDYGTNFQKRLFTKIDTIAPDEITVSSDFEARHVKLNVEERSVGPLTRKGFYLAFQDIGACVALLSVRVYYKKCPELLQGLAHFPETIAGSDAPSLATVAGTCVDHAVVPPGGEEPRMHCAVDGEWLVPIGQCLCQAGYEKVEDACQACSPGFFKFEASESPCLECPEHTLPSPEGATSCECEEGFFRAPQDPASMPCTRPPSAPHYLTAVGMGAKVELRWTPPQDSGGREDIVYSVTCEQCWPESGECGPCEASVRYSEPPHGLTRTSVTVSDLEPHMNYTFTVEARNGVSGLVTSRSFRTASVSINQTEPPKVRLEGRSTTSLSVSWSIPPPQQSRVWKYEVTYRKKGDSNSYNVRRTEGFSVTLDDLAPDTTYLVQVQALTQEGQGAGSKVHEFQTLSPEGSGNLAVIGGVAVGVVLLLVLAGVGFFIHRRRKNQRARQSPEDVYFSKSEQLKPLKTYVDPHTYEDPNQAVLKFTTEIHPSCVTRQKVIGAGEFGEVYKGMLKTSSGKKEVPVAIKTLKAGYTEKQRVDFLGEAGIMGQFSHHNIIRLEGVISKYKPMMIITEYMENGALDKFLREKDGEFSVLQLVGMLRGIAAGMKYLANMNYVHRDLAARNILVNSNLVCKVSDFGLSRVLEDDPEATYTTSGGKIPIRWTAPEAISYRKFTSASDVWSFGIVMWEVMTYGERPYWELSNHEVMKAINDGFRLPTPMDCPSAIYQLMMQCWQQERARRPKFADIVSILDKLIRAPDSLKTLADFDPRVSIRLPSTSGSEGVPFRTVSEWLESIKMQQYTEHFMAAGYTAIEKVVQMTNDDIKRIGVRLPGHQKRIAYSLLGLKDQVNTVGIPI
UniProt Q14289, whole entry, looked up: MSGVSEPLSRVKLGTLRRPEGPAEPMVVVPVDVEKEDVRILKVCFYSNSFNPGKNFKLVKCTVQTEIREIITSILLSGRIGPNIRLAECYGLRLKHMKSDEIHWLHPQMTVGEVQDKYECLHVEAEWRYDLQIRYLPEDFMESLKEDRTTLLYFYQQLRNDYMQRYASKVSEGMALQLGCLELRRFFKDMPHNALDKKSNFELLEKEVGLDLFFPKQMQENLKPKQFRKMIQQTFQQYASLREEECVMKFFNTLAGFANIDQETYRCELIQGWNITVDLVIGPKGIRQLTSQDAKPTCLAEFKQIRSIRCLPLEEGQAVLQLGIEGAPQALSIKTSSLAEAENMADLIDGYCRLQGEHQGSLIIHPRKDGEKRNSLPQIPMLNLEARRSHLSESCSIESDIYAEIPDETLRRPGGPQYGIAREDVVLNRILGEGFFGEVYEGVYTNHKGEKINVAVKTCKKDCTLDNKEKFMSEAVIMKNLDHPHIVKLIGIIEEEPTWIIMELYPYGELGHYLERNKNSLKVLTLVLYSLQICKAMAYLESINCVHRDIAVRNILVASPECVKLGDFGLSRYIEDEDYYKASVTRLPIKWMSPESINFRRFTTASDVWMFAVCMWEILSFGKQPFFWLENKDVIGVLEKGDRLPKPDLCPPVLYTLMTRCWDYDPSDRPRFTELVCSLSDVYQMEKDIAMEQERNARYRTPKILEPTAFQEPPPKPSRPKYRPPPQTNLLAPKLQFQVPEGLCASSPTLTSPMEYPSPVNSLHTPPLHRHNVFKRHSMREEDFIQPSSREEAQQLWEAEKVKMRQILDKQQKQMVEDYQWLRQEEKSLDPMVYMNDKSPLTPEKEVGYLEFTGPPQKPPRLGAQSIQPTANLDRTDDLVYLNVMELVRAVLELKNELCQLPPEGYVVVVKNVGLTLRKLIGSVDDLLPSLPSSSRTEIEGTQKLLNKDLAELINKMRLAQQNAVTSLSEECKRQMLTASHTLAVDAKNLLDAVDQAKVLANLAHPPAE

| Target | number of time points [1] | number of time points (G-5555 (hydrochloride)) | number of time points [2] | number of time points [3] | number of time points [4] | number of time points (AZD3229 Tosylate) | number of time points [5] | number of time points (Ferulic acid (sodium)) | number of time points (Ferulic acid) | number of time points (ALK2-IN-4 (succinate)) |
| --- | --- | --- | --- | --- | --- | --- | --- | --- | --- | --- |
| ULK3 (UniProt Q6PHR2) | 0 | 3 | 0 | 0 | 0 | 0 | 0 | 0 | 0 | 0 |
| AURKA (UniProt O14965) | 0 | 0 | 0 | 0 | 0 | 0 | 0 | 0 | 0 | 0 |
| CDK10 (UniProt Q15131) | 0 | 0 | 0 | 0 | 0 | 0 | 0 | 0 | 0 | 0 |
| CDK2 (UniProt P24941) | 0 | 0 | 0 | 0 | 0 | 0 | 0 | 0 | 0 | 0 |
| NTRK3 (UniProt Q16288) | 0 | 0 | 0 | 0 | 0 | 0 | 0 | 0 | 0 | 0 |
| ROR2 (UniProt Q01974) | 0 | 0 | 0 | 0 | 0 | 0 | 0 | 0 | 0 | 0 |
| EGFR_T790M (UniProt P00533) | 0 | 0 | 0 | 0 | 0 | 0 | 0 | 0 | 0 | 0 |
| ABL1 (UniProt P00519) | 0 | 1 | 4 | 0 | 0 | 0 | 0 | 0 | 0 | 0 |
| RIOK1 (UniProt Q9BRS2) | 0 | 0 | 0 | 0 | 0 | 0 | 0 | 0 | 0 | 0 |
| AURKC (UniProt Q9UQB9) | 0 | 0 | 0 | 0 | 0 | 0 | 0 | 0 | 0 | 0 |
| CAMK2G (UniProt Q13555) | 0 | 0 | 0 | 0 | 0 | 0 | 0 | 0 | 0 | 0 |
| MKNK1 (UniProt Q9BUB5) | 0 | 2 | 0 | 0 | 0 | 0 | 0 | 0 | 0 | 0 |
| NTRK2 (UniProt Q16620) | 0 | 0 | 0 | 0 | 0 | 0 | 0 | 0 | 0 | 0 |
| DYRK1B (UniProt Q9Y463) | 0 | 0 | 0 | 0 | 0 | 0 | 0 | 0 | 0 | 0 |
| ZAK (UniProt Q9NYL2) | 0 | 0 | 0 | 0 | 0 | 0 | 0 | 0 | 0 | 0 |
| LYN (UniProt P07948) | 0 | 2 | 0 | 0 | 0 | 0 | 0 | 0 | 0 | 0 |
| ZAP70 (UniProt P43403) | 0 | 0 | 0 | 0 | 0 | 0 | 0 | 0 | 0 | 0 |
| FGFR3 (UniProt P22607) | 0 | 0 | 0 | 0 | 0 | 0 | 0 | 0 | 0 | 0 |
| TYK2 (UniProt P29597) | 0 | 0 | 0 | 0 | 0 | 0 | 0 | 0 | 0 | 0 |
| JAK1 (UniProt P23458) | 0 | 0 | 0 | 0 | 0 | 0 | 0 | 0 | 0 | 0 |
| FGFR2 (UniProt P21802) | 0 | 0 | 0 | 0 | 0 | 0 | 0 | 0 | 0 | 0 |
| RAF1_S257L (clone: RAF1_mut) (UniProt P04049) | 0 | 0 | 0 | 0 | 0 | 0 | 0 | 0 | 0 | 0 |
| PDGFRB (UniProt P09619) | 0 | 0 | 0 | 0 | 0 | 0 | 4 | 0 | 0 | 0 |
| RET (UniProt P07949) | 0 | 0 | 0 | 0 | 0 | 0 | 0 | 0 | 0 | 0 |

A few values from the entries so far.
number of time points (Ferulic acid (sodium)) with EGFR_T790M (UniProt P00533) reads 0
number of time points (G-5555 (hydrochloride)) with RET (UniProt P07949) reads 0

Continued.

| Target | number of time points [1] | number of time points (G-5555 (hydrochloride)) | number of time points [2] | number of time points [3] | number of time points [4] | number of time points (AZD3229 Tosylate) | number of time points [5] | number of time points (Ferulic acid (sodium)) | number of time points (Ferulic acid) | number of time points (ALK2-IN-4 (succinate)) |
| --- | --- | --- | --- | --- | --- | --- | --- | --- | --- | --- |
| RIPK1 (UniProt Q13546) | 0 | 0 | 0 | 0 | 0 | 0 | 0 | 0 | 0 | 0 |
| IRAK3 (UniProt Q9Y616) | 0 | 0 | 0 | 0 | 0 | 0 | 0 | 0 | 0 | 0 |
| SRC (UniProt P12931) | 0 | 0 | 0 | 0 | 0 | 0 | 0 | 0 | 0 | 0 |
| BMX (UniProt P51813) | 0 | 0 | 0 | 0 | 0 | 0 | 0 | 0 | 0 | 0 |
| CSNK1D (UniProt P48730) | 0 | 0 | 0 | 0 | 0 | 0 | 0 | 0 | 0 | 0 |
| PLK1 (UniProt P53350) | 0 | 0 | 0 | 0 | 0 | 0 | 0 | 0 | 0 | 0 |
| BLK (UniProt P51451) | 0 | 0 | 0 | 0 | 0 | 0 | 0 | 0 | 0 | 0 |
| CDK6 (UniProt Q00534) | 0 | 0 | 0 | 0 | 0 | 0 | 0 | 0 | 0 | 0 |
| FLT3 (UniProt P36888) | 0 | 0 | 0 | 0 | 0 | 0 | 0 | 0 | 0 | 0 |
| CDK3 (UniProt Q00526) | 0 | 0 | 0 | 0 | 0 | 0 | 0 | 0 | 0 | 0 |
| RIPK2 (UniProt O43353) | 0 | 0 | 0 | 0 | 0 | 0 | 0 | 0 | 0 | 4 |
| BRAF_V600E | 0 | 0 | 0 | 0 | 0 | 0 | 0 | 0 | 0 | 0 |
| PRKAA1 (UniProt Q13131) | 0 | 0 | 0 | 0 | 0 | 0 | 0 | 0 | 0 | 0 |
| MAPKAPK2 (UniProt P49137) | 0 | 0 | 0 | 0 | 0 | 0 | 0 | 0 | 0 | 0 |
| LIMK1 (UniProt P53667) | 0 | 0 | 0 | 0 | 0 | 0 | 0 | 0 | 0 | 0 |
| PDK1 (UniProt Q15118) | 0 | 0 | 0 | 0 | 0 | 0 | 0 | 0 | 0 | 0 |
| EPHA2 (UniProt P29317) | 0 | 0 | 0 | 0 | 0 | 0 | 0 | 0 | 0 | 0 |
| PTK2B (UniProt Q14289) | 0 | 0 | 0 | 0 | 0 | 0 | 0 | 0 | 0 | 0 |
| PDPK1 (UniProt O15530) | 0 | 2 | 0 | 0 | 0 | 0 | 0 | 0 | 0 | 0 |
| FGFR1 (UniProt P11362) | 0 | 0 | 0 | 0 | 0 | 0 | 0 | 0 | 0 | 0 |
| SYK (UniProt P43405) | 0 | 0 | 0 | 0 | 0 | 0 | 0 | 0 | 0 | 0 |
| EGFR_L861Q (UniProt P00533) | 0 | 0 | 0 | 0 | 0 | 0 | 0 | 0 | 0 | 0 |
| EGFR_G719S (UniProt P00533) | 0 | 0 | 0 | 0 | 0 | 0 | 0 | 0 | 0 | 0 |

— the supplement of paper PMC12823440, “Inhibitors supercharge kinase turnover through native proteolytic circuits” (Nature, 2025)
